Drawing on article PMC9156729, this text covers binding for three molecules.

These are yes or no findings as the source states them, for the method shown. Binding seen in cells or lysates may run through a third protein. For some of these results: A result given as binding can be weak or reduced; the word gives no strength. Sequences can lack the tags named with a protein.

One test concerns the target T1, HA-ASCT2, wild type (UniProt Q15758).
T1 sequence: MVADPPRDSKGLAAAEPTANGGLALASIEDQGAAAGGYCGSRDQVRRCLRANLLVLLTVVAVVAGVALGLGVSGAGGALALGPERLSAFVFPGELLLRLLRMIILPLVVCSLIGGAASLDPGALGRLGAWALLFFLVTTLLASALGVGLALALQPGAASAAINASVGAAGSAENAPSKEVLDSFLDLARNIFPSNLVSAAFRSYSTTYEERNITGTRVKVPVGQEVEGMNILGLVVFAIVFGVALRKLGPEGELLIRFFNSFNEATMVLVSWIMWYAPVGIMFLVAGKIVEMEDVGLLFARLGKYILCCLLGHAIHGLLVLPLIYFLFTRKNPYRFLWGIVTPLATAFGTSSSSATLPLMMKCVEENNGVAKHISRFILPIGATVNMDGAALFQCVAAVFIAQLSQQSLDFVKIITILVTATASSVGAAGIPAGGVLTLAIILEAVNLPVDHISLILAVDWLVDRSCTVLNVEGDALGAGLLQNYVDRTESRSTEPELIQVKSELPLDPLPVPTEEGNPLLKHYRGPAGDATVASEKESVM
Kind of test: co-IP; HEK293 cells transfected with plasmids; IP lysis buffer (50 mM Tris-HCl pH 8.0, 120 mM NaCl, 0.5% NP40, 1 mM EDTA); HA antibody overnight at 4 °C; immunoblot.

Another test deals with FLAG-SPOPΔMATH. Kind of test: co-IP; HEK293 cells transfected with plasmids; IP lysis buffer (50 mM Tris-HCl pH 8.0, 120 mM NaCl, 0.5% NP40, 1 mM EDTA); FLAG-agarose beads overnight at 4 °C; immunoblot. For orientation: Immunoblotting shows a protein as a band on a membrane.
The target in another test is FLAG-SPOPΔBTB. Described as above.

Consider FLAG-SPOPΔBTB (domain or fragment), for which the binding result in the test with HA-ASCT2, wild type is on record as “binds”.
For the molecule FLAG-SPOPΔMATH (domain or fragment), the binding result with HA-ASCT2, wild type was “no binding”.

B1: HA-ASCT2, wild type (protein, UniProt Q15758 1-541)
chain: MVADPPRDSKGLAAAEPTANGGLALASIEDQGAAAGGYCGSRDQVRRCLRANLLVLLTVVAVVAGVALGLGVSGAGGALALGPERLSAFVFPGELLLRLLRMIILPLVVCSLIGGAASLDPGALGRLGAWALLFFLVTTLLASALGVGLALALQPGAASAAINASVGAAGSAENAPSKEVLDSFLDLARNIFPSNLVSAAFRSYSTTYEERNITGTRVKVPVGQEVEGMNILGLVVFAIVFGVALRKLGPEGELLIRFFNSFNEATMVLVSWIMWYAPVGIMFLVAGKIVEMEDVGLLFARLGKYILCCLLGHAIHGLLVLPLIYFLFTRKNPYRFLWGIVTPLATAFGTSSSSATLPLMMKCVEENNGVAKHISRFILPIGATVNMDGAALFQCVAAVFIAQLSQQSLDFVKIITILVTATASSVGAAGIPAGGVLTLAIILEAVNLPVDHISLILAVDWLVDRSCTVLNVEGDALGAGLLQNYVDRTESRSTEPELIQVKSELPLDPLPVPTEEGNPLLKHYRGPAGDATVASEKESVM
Consider B1, for which the binding entry is reported as “no binding” in the test with FLAG-SPOPΔMATH and “binds” in the test with FLAG-SPOPΔBTB.
